According to patent US20250388694A1:
Results are given in words; binding and its absence hold for the method and conditions named. Some binding calls cover weakened binding; strength is not graded here. Each block holds one binder with its values, some of them ahead of it.

Chains of the proteins cited; added tags and fusions are not shown. Lines headed by an entry give the natural chain unless they say otherwise; changes in a name come on top.
UniProt P13693: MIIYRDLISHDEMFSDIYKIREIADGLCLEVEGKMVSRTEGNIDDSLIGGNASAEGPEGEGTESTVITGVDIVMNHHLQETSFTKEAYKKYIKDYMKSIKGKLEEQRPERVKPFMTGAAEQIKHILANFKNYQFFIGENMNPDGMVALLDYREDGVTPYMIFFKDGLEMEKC

Assays:
[1] = biological target: Human TCTP (translationally controlled tumor protein) (human) (UniProt P13693); assay: ELISA, selection after Beacon screening
[2] = biological target: Human TCTP (translationally controlled tumor protein) (human) (UniProt P13693); assay: ELISA, human TCTP coated at 1 ug/ml, antibody titrated
[3] = biological target: Human TCTP (translationally controlled tumor protein) (human) (UniProt P13693); assay: ELISA, human TCTP coated at 1 µg/ml, antibody titrated, OD 450 nm
[4] = biological target: Human TCTP (translationally controlled tumor protein) (human) (UniProt P13693); assay: ELISA, selection of hybridoma antibodies

binding [1]: binds
binding [2]: binds
binding [3]: binds
B1: Ab3 (antibody, V domains shown)
VH: QVQLVQSGAEVKKPGASVKVSCKASGYTFTGYYMHWVRQAPGQGLEWMGWINPNSGGTNYAQKFQGWVTMTRDTSISTAYMELRLRSDDTAVYYCARLGTTGYYYFDYWGQGTLVTVSS
VL: EIVLTQSPDFQSVTPKEKVTITCRASQSIGSSLHWYQQKPDQSPKLLIKYASQSFSGVPSRFSGSGSGTDFTLTINSLEAEDAATYYCHQSSSLPRTFGQGTKVEIK

binding [4]: binds
binding [2]: binds
binding [3]: binds
B2: Ab22 (antibody, V domains shown)
VH: QVQLQQSGPGLVKPSQTLSLTCAISGDSVSSSSAAWNWIRQSPSRGLEWLGRTYYRSKWYNDYAESVKSRITINPDTSKNQFSLQLNSVTPEDTAVYYCARRLTIVRGVMRGGMDVWGQGTTVTVSS
VL: DIVMTQSPDSLAVSLDERATINCKSSQNLLYSANNKDYLAWYQQKPGQSPKLLIYWASTRYSGVPDRFSGSGSGTDFTLTISSLQAEDVAVYYCQQYYSTPWTFGQGTKVEIK

binding [4]: binds
binding [2]: binds
binding [3]: binds
B3: Ab21 (antibody, V domains shown)
VH: B2 VH
VL: B2 VL
